Experimental data as given in PubChem BioAssay AID624291 (National Center for Advancing Translational Sciences (NCATS), 2012).
The campaign covered roughly 350,000 compounds. About 220 (0.063%) were called active. The inconclusive results got no clear call from the source; some entries with a clear call stand among them for comparison. The call rests on the fitted dose curve; in most records, active means well fitted activation curve with a large enough effect; inconclusive means small, poorly fitted or top-dose-only effect; inactive means no such curve, though single readings can be large or run the other way. Potencies of inconclusive entries are doubtful fits and often do not repeat.

Test: qHTS for Activators of Integrin-Mediated Alleviation for Muscular Dystrophy; further: nearly all actives have a fitted effect of over 60% in size;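 on activation: 100% = response of the positive control SU9516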
Settings: alpha7betagal myoblasts, beta-gal FDG fluorescence, 48 h; activation: at 38.3 µM (top of the series)
Method in brief: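 alpha7betagal+/- myoblasts (passage 13, 250/well) treated 48 h at 37C with compounds at 1:260 dilution of DMSO stock. Lysed, then beta-galactosidase activity read as FDG fluorescence (ex 480/em 540) after 30 min, with pre-read for autofluorescence.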
Potency means the concentration at half of the fitted maximal effect.

Row | SMILES | Potency | activation
1 | N/C(=N\OC(=O)Cc1ccccc1)c1ccccc1Cl | inconclusive: 3.55 µM [activator, single point] | –
2 | O=C(Nc1ccc(NC(=O)c2ccco2)nc1)c1cccnc1 | inactive | –
3 | Cc1cccn2c(=O)c(/C=C(\C#N)C(=O)NCc3ccco3)c(N3CCCC(C)C3)nc12 (configuration not stated) | inconclusive: 3.98 µM [activator, single point] | –
4 | COc1cccc2[nH]c3c(=O)n(CCCN4CCOCC4)cnc3c12 | inconclusive: 2.51 µM [activator, full curve, poor fit] | –
5 | O=C(CSc1ccc2ccccc2c1)Nc1nc2ccccc2[nH]1 | inconclusive: 10 µM [activator, single point] | –
6 | CCn1cnc2cc([N+](=O)[O-])ccc21 | inconclusive: 28.2 µM [activator, single point] | –
7 | COCCCNC(=O)/C(C#N)=c1\s/c(=C\c2ccccc2OC(F)F)c(=O)n1CCCOC | inactive | –
8 | CC#CC#Cc1cccc(=O)o1 | inactive | –
9 | Cc1ccc(NC(=O)OCc2cc(-c3ccccc3)on2)cc1 | inconclusive: 5.01 µM [activator, single point] | –
10 | CCOc1cc(C(=O)NC(C)CCc2ccccc2)cc(OCC)c1OCC (configuration not stated) | inconclusive: 5.01 µM [activator, single point] | –
11 | O=C(NCc1ccco1)c1ccc(Cl)c(S(=O)(=O)N2CCc3ccccc32)c1 | inconclusive: 3.55 µM [activator, single point] | –
12 | Cc1ccc(S(=O)(=O)N2CCOCC2)cc1C(=O)NC1CCSc2ccccc21 (configuration not stated) | inconclusive: 2 µM [activator, partial curve, poor fit] | –
13 | Cc1ccc(N(C(=O)Nc2ccccc2)C2=NCCC2)cc1 | inconclusive: 1.26 µM [activator, partial curve, poor fit] | –
14 | CC(O)c1nc2cc([N+](=O)[O-])ccc2n1Cc1ccccc1 (configuration not stated) | inconclusive: 2.51 µM [activator, single point] | –
15 | Cc1cc(O)c(C(C)C)cc1N=Cc1cc([N+](=O)[O-])ccc1O | inactive | –
16 | CCOC(=O)Cc1csc(NC(=O)Cc2ccccc2)n1 | inconclusive: 3.16 µM [activator, single point] | –
17 | COc1cc(OC)c2c(=O)cc(-c3ccccc3)oc2c1 | inactive | –
18 | CC(=O)c1ccc(N2CCN(S(=O)(=O)c3cn(C)cn3)CC2)cc1 | inconclusive: 1.78 µM [activator, partial curve, poor fit] | –
19 | Cc1ccc2c(NC(=O)c3ccc(Br)o3)cccc2n1 | inconclusive: 8.91 µM [activator, partial curve, poor fit] | –
20 | COc1nc(-c2cccc([N+](=O)[O-])c2)nc2ccccc12 | inactive | –
21 | NC(=O)CN(N=Nc1cccc([N+](=O)[O-])c1)c1cccc([N+](=O)[O-])c1 | inconclusive: 5.01 µM [activator, single point] | –
22 | [O-][n+]1cccc2c(Br)cc(Br)c(O)c21 | inconclusive: 1.26 µM [activator, partial curve, poor fit] | –
23 | Nc1nnc(CSCc2cccc(Br)c2)s1 | inconclusive: 11.2 µM [activator, partial curve, poor fit] | –

15 structures already listed, arranged by molar mass, descending:
Row | SMILES | Potency | activation
7 | COCCCNC(=O)/C(C#N)=c1\s/c(=C\c2ccccc2OC(F)F)c(=O)n1CCCOC | inactive | –
12 | Cc1ccc(S(=O)(=O)N2CCOCC2)cc1C(=O)NC1CCSc2ccccc21 (configuration not stated) | inconclusive: 2 µM [activator, partial curve, poor fit] | –
10 | CCOc1cc(C(=O)NC(C)CCc2ccccc2)cc(OCC)c1OCC (configuration not stated) | inconclusive: 5.01 µM [activator, single point] | –
18 | CC(=O)c1ccc(N2CCN(S(=O)(=O)c3cn(C)cn3)CC2)cc1 | inconclusive: 1.78 µM [activator, partial curve, poor fit] | –
21 | NC(=O)CN(N=Nc1cccc([N+](=O)[O-])c1)c1cccc([N+](=O)[O-])c1 | inconclusive: 5.01 µM [activator, single point] | –
5 | O=C(CSc1ccc2ccccc2c1)Nc1nc2ccccc2[nH]1 | inconclusive: 10 µM [activator, single point] | –
19 | Cc1ccc2c(NC(=O)c3ccc(Br)o3)cccc2n1 | inconclusive: 8.91 µM [activator, partial curve, poor fit] | –
22 | [O-][n+]1cccc2c(Br)cc(Br)c(O)c21 | inconclusive: 1.26 µM [activator, partial curve, poor fit] | –
23 | Nc1nnc(CSCc2cccc(Br)c2)s1 | inconclusive: 11.2 µM [activator, partial curve, poor fit] | –
15 | Cc1cc(O)c(C(C)C)cc1N=Cc1cc([N+](=O)[O-])ccc1O | inactive | –
2 | O=C(Nc1ccc(NC(=O)c2ccco2)nc1)c1cccnc1 | inactive | –
14 | CC(O)c1nc2cc([N+](=O)[O-])ccc2n1Cc1ccccc1 (configuration not stated) | inconclusive: 2.51 µM [activator, single point] | –
1 | N/C(=N\OC(=O)Cc1ccccc1)c1ccccc1Cl | inconclusive: 3.55 µM [activator, single point] | –
17 | COc1cc(OC)c2c(=O)cc(-c3ccccc3)oc2c1 | inactive | –
20 | COc1nc(-c2cccc([N+](=O)[O-])c2)nc2ccccc12 | inactive | –

(listing goes on)

Row | SMILES | Potency | activation
24 | O=C(CN1CCCCCC1)Nc1ccc([N+](=O)[O-])cc1Cl | inactive | –
25 | CCOCCOC(=O)c1cccc2c1-c1ccccc1C2=O | inconclusive: 11.2 µM [activator, partial curve, poor fit] | –
26 | COc1ccc2cc(C(=O)N(C)Cc3ccccc3)[nH]c2c1 | inconclusive: 2.24 µM [activator, partial curve, poor fit] | –
27 | CCOC(=O)CSc1nnc(NC(=O)c2ccc3c(c2)OCO3)s1 | inconclusive: 5.01 µM [activator, single point] | –
28 | CC1=[N+](C)c2c(ccc3cccnc23)C1(C)C | – | inconclusive: -63.7% [activator]
29 | COc1ccc2c(c1)NC1(O)c3ccccc3C(=O)C21O (configuration not stated) | inconclusive: 5.01 µM [activator, single point] | –
30 | COc1ccccc1N=Nc1c(C)[nH]n(-c2ccccc2)c1=O | inactive | –
31 | Cc1cc(N/N=C/c2c[nH]c3ccccc23)c2ccccc2n1 | inconclusive: 2.51 µM [activator, single point] | –
32 | CCn1cc(CNC(=O)/C=C/c2cnn(C)c2)c(C)n1 | inconclusive: 11.2 µM [activator, partial curve, poor fit] | –
33 | Cc1cc(C)nc(CCNC(=O)C2CCC(=O)N(Cc3ccccc3F)C2)n1 (configuration not stated) | inconclusive: 6.31 µM [activator, partial curve] | –
34 | Cc1cccc(NC(=O)CSCc2cc(=O)n3c(C)csc3n2)c1C | inconclusive: 1.58 µM [activator, partial curve, poor fit] | –
35 | CCC1CN(C(=O)NCc2cccc(OC)c2)c2ccccc2O1 (configuration not stated) | inconclusive: 8.91 µM [activator, partial curve, poor fit] | –
36 | COC(=O)C(=O)C/C(=N/Nc1ncnc2ccccc12)c1ccc(Cl)cc1 | active: 10 µM | –
37 | CCc1cccc(C)c1Nc1nc2ccccc2n2cnnc12 | inconclusive: 5.01 µM [activator, single point] | –
38 | Cn1nc(C(F)(F)F)c(C#N)c1N1CCN(c2ccccn2)CC1 | inconclusive: 7.94 µM [activator, partial curve, poor fit] | –
39 | CC1CC(C)(C)CC2(C1)NC(=S)N(c1ccccc1)N2 (configuration not stated) | inconclusive: 11.2 µM [activator, single point] | –
40 | CCN(CC)CCOc1ccc(C=NNc2nc3c([nH]2)c(=O)n(C)c(=O)n3C)cc1 | inconclusive: 2.82 µM [activator, single point] | –
41 | COc1ccc(CCNC(=O)COC(=O)Cn2cnc3c2c(=O)n(C)c(=O)n3C)cc1 | inactive | –
42 | Nc1c(C(=O)NCC2CCCO2)c2nc3ccccc3nc2n1/N=C/c1ccncc1 (configuration not stated) | inconclusive: 28.2 µM [activator, single point] | –
43 | O=C(NNC(=S)NC(=O)c1ccccc1)c1cccnc1 | inconclusive: 3.16 µM [activator, single point] | –
44 | O=C1NC2(CCCC2)C(=O)N1Cc1cc(=O)n2ccsc2n1 | inconclusive: 5.62 µM [activator, single point] | –
45 | CCc1ccc(OCC(=O)NNC(=O)Cc2cccs2)cc1 | inactive | –
46 | Cc1ccc(-c2cc(C(=O)NCC3CCCO3)no2)cc1 (configuration not stated) | inconclusive: 14.1 µM [activator, partial curve, poor fit] | –

Row | SMILES | Potency | activation
47 | CC(C(=O)N1CCCC1)N(C)CC(=O)Nc1cccc(F)c1 (configuration not stated) | inconclusive: 3.55 µM [activator, partial curve] | –
48 | CC(C)c1ccc(S(=O)(=O)N2CCN(C(=O)c3ccco3)CC2)cc1 | inconclusive: 11.2 µM [activator, single point] | –
49 | COC(=O)C1CN(C(=O)COc2ccc(Cl)cc2C)c2ccccc2O1 (configuration not stated) | inconclusive: 5.01 µM [activator, single point] | –
50 | O=C(N/N=C/c1ccc(O)c([N+](=O)[O-])c1)c1ccncc1 | inconclusive: 15.8 µM [activator, single point] | –
51 | N/C(=N\OC(=O)c1ccc(Br)cc1)c1ccncc1 | inconclusive: 3.16 µM [activator, single point] | –
52 | Cc1cc(NC(=O)Nc2cccc(C(F)(F)F)c2)no1 | inconclusive: 5.01 µM [activator, single point] | –
53 | CC(C)NC(=O)NNC(=O)Cn1nnc(-c2cccc(Cl)c2Cl)n1 | inconclusive: 1.58 µM [activator, partial curve, poor fit] | –
54 | C=CCN1C(=O)C(CCCC)NC1=S (configuration not stated) | inactive | –
55 | CNC(=S)N(CCc1ccccc1)Cc1cc2cc(OC)c(OC)cc2[nH]c1=O | inactive | –
56 | Fc1ccc(-c2ccnc3nc(N4CCN(c5ccccc5)CC4)nn23)cc1 | inconclusive: 2.82 µM [activator, full curve] | –
57 | COC(=O)[C@H](C)NC(=O)N1CCC(Cc2ccccc2)CC1 | inconclusive: 11.2 µM [activator, single point] | –
58 | N/C(=N\c1nc2c(c(=O)[nH]1)CCC2)Nc1cccc(Cl)c1 | inconclusive: 5.01 µM [activator, single point] | –
59 | O=C(CN1C(=O)/C(=C/c2ccco2)SC1=S)NC1CCS(=O)(=O)C1 (configuration not stated) | inconclusive: 5.01 µM [activator, single point] | –
60 | O=C(Nc1ccccc1[N+](=O)[O-])C1=C(O)CCn2c1nc1ccccc12 | inconclusive: 28.2 µM [activator, single point] | –
61 | Cc1noc(C)c1C(=O)Nc1nc(-c2cccs2)cs1 | inconclusive: 1.12 µM [activator, full curve, poor fit] | –
62 | Cc1nnc(SCCn2c(Br)nc3c2c(=O)n(C)c(=O)n3C)s1 | inconclusive: 2 µM [activator, partial curve, poor fit] | –
63 | Cc1ccc(NC(=O)C2CCCN(S(=O)(=O)c3ccc(-n4cnnn4)cc3)C2)cc1 (configuration not stated) | inconclusive: 7.94 µM [activator, partial curve, poor fit] | –
64 | Cc1ccc(OCCC(=O)OCC(=O)Nc2cc(C)nn2-c2ccccc2)cc1 | inconclusive: 4.47 µM [activator, single point] | –
65 | O=C(COc1ccccc1-c1ccccc1)N/N=C/c1cccnc1 | inconclusive: 3.16 µM [activator, single point] | –
66 | O=C(NNC1CC(=O)N(c2ccc(F)cc2)C1=O)c1cccnc1 (configuration not stated) | inconclusive: 1.78 µM [activator, partial curve, poor fit] | –
67 | Cc1ccc(Nc2c([N+](=O)[O-])c(=O)oc3ccccc23)cc1 | inconclusive: 2 µM [activator, partial curve, poor fit] | –
